PubChem BioAssay AID602196, INSERM – 2012
Test: 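Genes whose knock-down alters cisplatin killing of lung cancer cells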. System: human A549 lung cancer cells. Reagent: siRNA pair against human genes. Timing: 48 h transfection before cisplatin; time from cisplatin to read-out not stated. Challenge: cisplatin at a dose killing half of control-siRNA cells; exact dose and duration not given. Detection: 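Shift in cisplatin death relative to control siRNA, from -50 (all cells die) to +50 (no cells die); siRNAs harmful on their own scored 0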. Scale: two-siRNA summed score (-2 to +2): higher = both siRNAs protect from cisplatin killing; -2 means both sensitise; mean protection from cisplatin (shift in death): higher = protection from cisplatin killing. Active means: 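Each siRNA scores 0 if harmful alone by LDH or WST-1, otherwise +1 if it reduces and -1 if it increases cisplatin killing; a gene is active when both siRNAs agree (sum +2 or -2)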. Calls: active = both siRNAs shift cisplatin killing the same way; inactive = no consistent shift, or siRNA harmful alone.
Shown is a random part of about 23,000 reagents. Of all reagents, 455 (2%) are marked active. 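Active includes both protection and sensitisation; some change values fall well beyond the stated -50 to +50 range.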 Further read-outs or replicates are left out here. Not stated in the record: the amount of reagent.

GPAT4 | two-siRNA summed score (-2 to +2): 1; mean protection from cisplatin (shift in death) (%): 12.2; outcome: inactive
ANKRD36B | two-siRNA summed score (-2 to +2): 0; mean protection from cisplatin (shift in death) (%): -2.2; outcome: inactive
BST2 | two-siRNA summed score (-2 to +2): 0; mean protection from cisplatin (shift in death) (%): -2.2; outcome: inactive
MINDY4 | two-siRNA summed score (-2 to +2): 0; mean protection from cisplatin (shift in death) (%): -4.8; outcome: inactive
ZFPL1 | two-siRNA summed score (-2 to +2): -1; mean protection from cisplatin (shift in death) (%): -8.1; outcome: inactive
USP40 | two-siRNA summed score (-2 to +2): 0; mean protection from cisplatin (shift in death) (%): -4.1; outcome: inactive

Next part; the last 2 above are carried over.
ZFPL1 | two-siRNA summed score (-2 to +2): -1; mean protection from cisplatin (shift in death) (%): -8.1; outcome: inactive
USP40 | two-siRNA summed score (-2 to +2): 0; mean protection from cisplatin (shift in death) (%): -4.1; outcome: inactive
FCHSD1 | two-siRNA summed score (-2 to +2): 0; mean protection from cisplatin (shift in death) (%): 0.8; outcome: inactive
ADAMTS20 | two-siRNA summed score (-2 to +2): 0; mean protection from cisplatin (shift in death) (%): 0.2; outcome: inactive
LRRIQ3 | two-siRNA summed score (-2 to +2): 0; mean protection from cisplatin (shift in death) (%): -3.1; outcome: inactive
ELAPOR1 | two-siRNA summed score (-2 to +2): 0; mean protection from cisplatin (shift in death) (%): 18.3; outcome: inactive
LOC442154 | two-siRNA summed score (-2 to +2): 0; mean protection from cisplatin (shift in death) (%): 2.5; outcome: inactive
LOC285733 | two-siRNA summed score (-2 to +2): 0; mean protection from cisplatin (shift in death) (%): 8.5; outcome: inactive
